Assay results from the supplement of paper PMC11732987, “Enantioselective OTUD7B fragment discovery through chemoproteomics screening and high-throughput optimisation” (Communications Chemistry, 2025).
The list shows a part of the results. The data scatter; read single values as rough.

Protein sequences, listed by entry. Tags and fused reporters are not part of them. Lines headed by an entry give the natural chain unless they say otherwise; changes in a name come on top. Residues count along the entry.
UniProt Q9HBM1: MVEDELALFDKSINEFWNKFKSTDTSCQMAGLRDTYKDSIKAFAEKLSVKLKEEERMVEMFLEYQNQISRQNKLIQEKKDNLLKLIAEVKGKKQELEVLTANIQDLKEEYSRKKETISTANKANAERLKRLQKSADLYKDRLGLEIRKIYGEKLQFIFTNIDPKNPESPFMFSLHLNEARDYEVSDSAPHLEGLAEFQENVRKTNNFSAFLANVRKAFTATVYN
UniProt Q5T280, 191-212: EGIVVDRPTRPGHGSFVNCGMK
UniProt Q96T58: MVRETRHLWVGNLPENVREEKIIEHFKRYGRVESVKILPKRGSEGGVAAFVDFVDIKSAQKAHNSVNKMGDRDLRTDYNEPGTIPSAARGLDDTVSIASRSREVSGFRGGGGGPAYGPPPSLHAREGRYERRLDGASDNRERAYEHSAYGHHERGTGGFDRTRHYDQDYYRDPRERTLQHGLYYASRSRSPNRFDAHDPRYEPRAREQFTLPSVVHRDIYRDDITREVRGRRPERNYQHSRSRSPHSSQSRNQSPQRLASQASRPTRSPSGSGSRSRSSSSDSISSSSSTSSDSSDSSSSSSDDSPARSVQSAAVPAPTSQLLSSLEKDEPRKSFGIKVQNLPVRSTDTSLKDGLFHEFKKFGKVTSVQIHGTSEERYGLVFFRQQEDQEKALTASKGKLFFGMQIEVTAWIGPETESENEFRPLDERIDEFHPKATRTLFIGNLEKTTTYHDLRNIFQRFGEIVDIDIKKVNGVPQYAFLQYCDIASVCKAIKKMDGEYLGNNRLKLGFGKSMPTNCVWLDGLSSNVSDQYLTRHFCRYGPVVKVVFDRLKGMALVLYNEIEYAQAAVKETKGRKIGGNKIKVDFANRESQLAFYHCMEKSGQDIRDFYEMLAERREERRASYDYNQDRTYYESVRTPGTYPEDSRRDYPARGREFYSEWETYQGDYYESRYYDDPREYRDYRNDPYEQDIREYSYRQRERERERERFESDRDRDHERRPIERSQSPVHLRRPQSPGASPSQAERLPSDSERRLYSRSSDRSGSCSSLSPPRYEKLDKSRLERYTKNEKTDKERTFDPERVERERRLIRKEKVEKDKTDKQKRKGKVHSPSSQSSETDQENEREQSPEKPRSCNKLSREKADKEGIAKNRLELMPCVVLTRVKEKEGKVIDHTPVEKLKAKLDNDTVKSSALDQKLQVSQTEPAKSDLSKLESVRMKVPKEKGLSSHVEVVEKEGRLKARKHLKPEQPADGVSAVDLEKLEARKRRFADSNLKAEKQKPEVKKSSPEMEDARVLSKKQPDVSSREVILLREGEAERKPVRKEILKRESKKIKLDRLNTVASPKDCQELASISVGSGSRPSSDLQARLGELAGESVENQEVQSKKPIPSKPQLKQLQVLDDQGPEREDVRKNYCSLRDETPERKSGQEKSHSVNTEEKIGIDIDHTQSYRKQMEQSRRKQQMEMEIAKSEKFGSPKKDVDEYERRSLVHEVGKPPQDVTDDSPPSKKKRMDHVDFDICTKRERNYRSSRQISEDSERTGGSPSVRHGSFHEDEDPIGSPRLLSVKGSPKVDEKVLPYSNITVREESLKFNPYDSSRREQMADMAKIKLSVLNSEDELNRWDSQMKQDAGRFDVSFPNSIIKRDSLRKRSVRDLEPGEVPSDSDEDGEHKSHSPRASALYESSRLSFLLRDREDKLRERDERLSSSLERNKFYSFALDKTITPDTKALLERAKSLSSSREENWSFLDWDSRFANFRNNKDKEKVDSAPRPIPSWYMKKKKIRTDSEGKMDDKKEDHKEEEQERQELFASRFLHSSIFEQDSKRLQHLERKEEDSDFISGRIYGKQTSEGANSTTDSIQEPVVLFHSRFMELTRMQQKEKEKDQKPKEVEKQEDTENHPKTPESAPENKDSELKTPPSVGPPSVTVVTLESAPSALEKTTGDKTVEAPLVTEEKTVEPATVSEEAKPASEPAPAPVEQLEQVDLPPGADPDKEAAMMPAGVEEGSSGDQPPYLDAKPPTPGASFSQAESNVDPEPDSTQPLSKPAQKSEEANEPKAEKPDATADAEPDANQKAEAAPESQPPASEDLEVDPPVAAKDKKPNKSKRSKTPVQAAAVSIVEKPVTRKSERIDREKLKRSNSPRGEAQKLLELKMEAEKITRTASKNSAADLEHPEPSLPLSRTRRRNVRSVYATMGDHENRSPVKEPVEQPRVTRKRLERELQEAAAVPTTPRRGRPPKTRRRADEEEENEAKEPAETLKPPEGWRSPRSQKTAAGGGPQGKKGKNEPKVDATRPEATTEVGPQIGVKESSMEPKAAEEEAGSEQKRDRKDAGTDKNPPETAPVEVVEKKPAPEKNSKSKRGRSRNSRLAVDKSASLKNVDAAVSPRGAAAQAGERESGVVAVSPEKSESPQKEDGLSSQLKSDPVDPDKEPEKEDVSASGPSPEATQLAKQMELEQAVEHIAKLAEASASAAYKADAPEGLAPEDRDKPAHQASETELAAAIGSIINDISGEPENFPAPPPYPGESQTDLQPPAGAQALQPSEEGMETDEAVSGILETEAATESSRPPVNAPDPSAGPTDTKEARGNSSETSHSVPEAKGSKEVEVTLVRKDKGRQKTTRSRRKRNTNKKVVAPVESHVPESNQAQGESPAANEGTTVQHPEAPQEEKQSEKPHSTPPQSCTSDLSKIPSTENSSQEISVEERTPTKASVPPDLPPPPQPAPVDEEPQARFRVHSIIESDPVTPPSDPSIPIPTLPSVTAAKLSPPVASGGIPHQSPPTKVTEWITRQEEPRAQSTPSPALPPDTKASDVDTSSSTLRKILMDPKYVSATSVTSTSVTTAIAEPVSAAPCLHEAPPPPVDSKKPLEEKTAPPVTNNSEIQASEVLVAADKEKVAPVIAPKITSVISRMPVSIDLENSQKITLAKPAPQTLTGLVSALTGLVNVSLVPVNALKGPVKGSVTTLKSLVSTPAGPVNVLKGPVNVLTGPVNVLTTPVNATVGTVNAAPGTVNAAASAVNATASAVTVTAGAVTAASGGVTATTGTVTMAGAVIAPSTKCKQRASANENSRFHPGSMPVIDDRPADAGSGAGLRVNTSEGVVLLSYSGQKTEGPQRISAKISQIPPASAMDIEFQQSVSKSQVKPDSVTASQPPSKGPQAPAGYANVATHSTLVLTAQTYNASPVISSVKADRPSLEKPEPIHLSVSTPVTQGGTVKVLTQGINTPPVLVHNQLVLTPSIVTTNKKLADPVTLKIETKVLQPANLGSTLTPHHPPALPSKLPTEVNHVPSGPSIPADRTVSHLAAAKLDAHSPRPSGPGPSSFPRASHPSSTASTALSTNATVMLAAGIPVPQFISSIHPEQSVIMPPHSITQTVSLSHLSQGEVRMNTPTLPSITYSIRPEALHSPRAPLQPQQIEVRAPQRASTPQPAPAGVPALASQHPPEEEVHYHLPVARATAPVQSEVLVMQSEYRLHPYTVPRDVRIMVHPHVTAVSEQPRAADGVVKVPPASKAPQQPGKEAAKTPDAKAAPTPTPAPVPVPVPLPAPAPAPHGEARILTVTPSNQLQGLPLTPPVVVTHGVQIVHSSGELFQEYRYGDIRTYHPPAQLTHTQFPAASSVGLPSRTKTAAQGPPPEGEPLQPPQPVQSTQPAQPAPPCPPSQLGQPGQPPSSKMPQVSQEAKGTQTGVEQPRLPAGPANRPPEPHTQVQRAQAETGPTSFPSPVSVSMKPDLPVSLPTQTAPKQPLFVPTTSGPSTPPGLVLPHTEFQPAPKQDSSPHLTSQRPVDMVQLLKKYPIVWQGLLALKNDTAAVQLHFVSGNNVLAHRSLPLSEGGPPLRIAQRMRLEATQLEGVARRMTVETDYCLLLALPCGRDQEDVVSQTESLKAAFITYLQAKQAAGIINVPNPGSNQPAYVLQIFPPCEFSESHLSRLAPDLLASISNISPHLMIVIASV
UniProt Q15005, 11-32: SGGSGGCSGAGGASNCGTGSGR
UniProt Q6ZRS2, 260-281: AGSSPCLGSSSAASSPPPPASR
UniProt P46977: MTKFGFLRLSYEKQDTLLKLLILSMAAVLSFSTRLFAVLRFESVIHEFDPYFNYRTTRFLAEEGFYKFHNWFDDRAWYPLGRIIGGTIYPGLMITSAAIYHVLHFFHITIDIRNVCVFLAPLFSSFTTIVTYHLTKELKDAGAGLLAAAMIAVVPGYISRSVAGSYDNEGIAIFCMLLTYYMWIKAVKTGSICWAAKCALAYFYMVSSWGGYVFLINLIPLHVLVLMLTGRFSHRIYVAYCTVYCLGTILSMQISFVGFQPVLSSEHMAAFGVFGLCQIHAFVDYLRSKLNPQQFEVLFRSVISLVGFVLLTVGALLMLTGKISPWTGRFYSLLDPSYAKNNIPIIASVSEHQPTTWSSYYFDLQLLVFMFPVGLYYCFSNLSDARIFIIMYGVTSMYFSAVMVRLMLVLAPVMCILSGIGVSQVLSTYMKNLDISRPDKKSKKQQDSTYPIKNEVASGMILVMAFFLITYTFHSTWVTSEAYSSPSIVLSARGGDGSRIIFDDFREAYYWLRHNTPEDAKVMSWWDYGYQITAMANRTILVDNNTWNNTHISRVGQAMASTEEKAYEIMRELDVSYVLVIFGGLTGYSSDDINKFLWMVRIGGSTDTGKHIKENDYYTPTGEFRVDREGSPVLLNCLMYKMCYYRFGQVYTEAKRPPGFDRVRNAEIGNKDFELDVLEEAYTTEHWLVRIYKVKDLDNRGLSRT
UniProt Q8N3U4: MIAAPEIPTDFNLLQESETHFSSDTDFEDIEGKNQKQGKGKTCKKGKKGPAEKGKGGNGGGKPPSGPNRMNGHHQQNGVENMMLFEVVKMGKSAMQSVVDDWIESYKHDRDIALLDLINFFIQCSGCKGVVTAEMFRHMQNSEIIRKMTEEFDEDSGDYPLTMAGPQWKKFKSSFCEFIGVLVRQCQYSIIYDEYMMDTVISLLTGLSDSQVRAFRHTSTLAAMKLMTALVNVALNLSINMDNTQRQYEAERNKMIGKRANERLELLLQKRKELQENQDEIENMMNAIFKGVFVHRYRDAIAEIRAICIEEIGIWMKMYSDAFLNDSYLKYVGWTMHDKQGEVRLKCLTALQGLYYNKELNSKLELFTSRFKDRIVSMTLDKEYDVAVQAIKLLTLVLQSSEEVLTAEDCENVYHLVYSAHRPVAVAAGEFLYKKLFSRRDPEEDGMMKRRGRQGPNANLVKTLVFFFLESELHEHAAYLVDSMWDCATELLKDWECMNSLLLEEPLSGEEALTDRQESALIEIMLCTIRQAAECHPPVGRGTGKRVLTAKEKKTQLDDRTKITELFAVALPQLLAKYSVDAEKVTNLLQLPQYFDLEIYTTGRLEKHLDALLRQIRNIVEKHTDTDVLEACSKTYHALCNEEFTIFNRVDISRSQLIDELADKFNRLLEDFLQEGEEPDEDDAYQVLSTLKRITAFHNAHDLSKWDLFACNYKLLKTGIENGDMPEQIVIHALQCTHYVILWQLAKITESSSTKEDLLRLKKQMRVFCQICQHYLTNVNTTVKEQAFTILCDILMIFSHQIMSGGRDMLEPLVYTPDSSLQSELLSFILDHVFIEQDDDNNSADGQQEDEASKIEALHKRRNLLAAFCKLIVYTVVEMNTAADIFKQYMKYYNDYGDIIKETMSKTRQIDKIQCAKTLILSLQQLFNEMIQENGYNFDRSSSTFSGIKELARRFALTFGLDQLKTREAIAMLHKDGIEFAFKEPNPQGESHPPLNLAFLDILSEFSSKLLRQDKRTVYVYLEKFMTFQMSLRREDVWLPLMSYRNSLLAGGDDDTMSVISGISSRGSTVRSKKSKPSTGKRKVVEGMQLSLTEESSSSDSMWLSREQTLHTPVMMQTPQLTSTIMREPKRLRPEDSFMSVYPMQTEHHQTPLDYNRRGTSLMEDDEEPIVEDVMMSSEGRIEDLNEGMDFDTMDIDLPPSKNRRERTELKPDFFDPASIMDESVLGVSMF
UniProt P08240, 353-373: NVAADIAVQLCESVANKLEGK
UniProt Q9Y3F4: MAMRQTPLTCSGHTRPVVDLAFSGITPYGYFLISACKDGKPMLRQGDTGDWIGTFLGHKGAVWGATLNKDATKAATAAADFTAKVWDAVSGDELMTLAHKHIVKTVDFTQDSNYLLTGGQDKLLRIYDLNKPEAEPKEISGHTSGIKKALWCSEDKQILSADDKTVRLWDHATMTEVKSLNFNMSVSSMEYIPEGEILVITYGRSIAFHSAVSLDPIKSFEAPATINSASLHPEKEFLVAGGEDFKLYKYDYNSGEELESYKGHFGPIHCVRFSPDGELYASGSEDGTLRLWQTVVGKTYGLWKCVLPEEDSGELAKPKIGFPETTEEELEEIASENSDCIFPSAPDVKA
UniProt Q5M775, 355-376: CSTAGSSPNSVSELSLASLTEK
UniProt Q12846: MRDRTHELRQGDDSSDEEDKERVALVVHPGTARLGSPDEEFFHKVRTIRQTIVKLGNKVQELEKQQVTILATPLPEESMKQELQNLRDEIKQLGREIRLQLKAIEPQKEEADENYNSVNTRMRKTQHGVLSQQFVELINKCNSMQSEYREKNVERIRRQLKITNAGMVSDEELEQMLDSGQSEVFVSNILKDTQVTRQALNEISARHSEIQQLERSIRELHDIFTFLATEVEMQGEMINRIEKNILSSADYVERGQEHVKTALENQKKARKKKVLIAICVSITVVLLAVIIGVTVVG

Legend:
[1] = compound: ClCC(=O)N[C@@H]1CCCc2ccccc12; experiment: log2 mean competition ratio of IA-DTB cysteine labelling (DMSO/compound) (log2 ratio); higher = stronger cysteine engagement by compound; conditions: treatment time: 4 h, cell line lysate: HEK293T
Protocol: (§1)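 IA-DTB competitive cysteine chemoproteomics in HEK293T RIPA lysate. Lysates were treated with compound 29 or 30 at 50 or 200 µM for 4 h, then IA-DTB (500 µM, 1 h), trypsin-digested, NeutrAvidin-enriched and analysed by diaPASEF. Competition ratio = intensity DMSO / intensity compound (n=4 treated, n=64 DMSO); binding: mean log2 CR ≥ 1 and p ≤ 0.05 plus QC filters. Target is the cysteine site.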

[2] = compound: ClCC(=O)N[C@H]1CCCc2ccccc12; experiment: as above; conditions: treatment time: 4 h, cell line lysate: HEK293T
Protocol: as §1

Target	log2 mean competition ratio ([1]; 50 µM)	log2 mean competition ratio ([1]; 200 µM)	log2 mean competition ratio ([2]; 50 µM)	log2 mean competition ratio ([2]; 200 µM)
SPC25 C27 (UniProt Q9HBM1)	0.209	0.0781	0.144	-0.000309
SPOUT1 C209 (UniProt Q5T280)	0.348	0.143	-0.23	-0.162
STAU1 C574 (UniProt O95793)	-0.017	0.329	0.13	0.393
SPTBN1 C183 (UniProt Q01082)	-0.0641	-0.29	0.122	-0.0659
STAT6 C272 (UniProt P42226)	0.339	0.0798	0.0667	-0.154
STXBP3 C26 (UniProt O00186)	-0.0373	-0.0135	-0.1	-0.0392
SSRP1 C200 (UniProt Q08945)	-0.185	0.000919	-0.175	-0.0273
SPEN C1134 (UniProt Q96T58)	0.0239	0.408	-0.277	0.237
STEAP3 C140 (UniProt Q658P3)	0.197	-0.0508	0.0423	0.171
SPCS2_(C17,C17,C26,C26) (UniProt Q15005)	-0.244	0.447	-0.253	0.395
STEEP1 C11	-0.0821	-0.0311	0.106	-0.0168
SPOUT1 C239 (UniProt Q5T280)	-0.0658	0.208	-0.151	0.149
SUGP2 C656 (UniProt Q8IX01)	0.102	0.694	0.2	0.787
SRCAP C3036 (UniProt Q6ZRS2)	-0.126	0.425	-0.148	0.522
SUN1 C630 (UniProt O94901)	0.00322	-0.192	0.179	-0.157
SYNJ1 C374 (UniProt O43426)	-0.193	0.0687	-0.0753	-0.00214
STT3A C193 (UniProt P46977)	0.655	0.613	0.395	0.456
STK11IP C622 (UniProt Q8N1F8)	-0.0383	0.065	-0.142	0.0921
SURF1 C125 (UniProt Q15526)	-0.00663	0.0463	-0.0969	-0.32
SPG7 C353 (UniProt Q9UQ90)	0.0378	-0.0473	0.578	0.163
SPAST C171 (UniProt Q9UBP0)	-0.193	1.74	0.0709	0.838
SPINT2 C179	0.0169	0.474	0.0712	0.391
STAG2 C632 (UniProt Q8N3U4)	-0.183	-0.108	0.000746	-0.118
SRPRA C363 (UniProt P08240)	-0.393	0.0378	-0.611	-0.211

In a second layout: entries from further up.
Target | log2 mean competition ratio ([1]; 50 µM) | log2 mean competition ratio ([1]; 200 µM) | log2 mean competition ratio ([2]; 50 µM) | log2 mean competition ratio ([2]; 200 µM)
SPC25 C27 (UniProt Q9HBM1) | 0.209 | 0.0781 | 0.144 | -0.000309
SPOUT1 C209 (UniProt Q5T280) | 0.348 | 0.143 | -0.23 | -0.162
SPTBN1 C183 (UniProt Q01082) | -0.0641 | -0.29 | 0.122 | -0.0659
SSRP1 C200 (UniProt Q08945) | -0.185 | 0.000919 | -0.175 | -0.0273
STEAP3 C140 (UniProt Q658P3) | 0.197 | -0.0508 | 0.0423 | 0.171
STEEP1 C11 | -0.0821 | -0.0311 | 0.106 | -0.0168
SPOUT1 C239 (UniProt Q5T280) | -0.0658 | 0.208 | -0.151 | 0.149
SUGP2 C656 (UniProt Q8IX01) | 0.102 | 0.694 | 0.2 | 0.787
SUN1 C630 (UniProt O94901) | 0.00322 | -0.192 | 0.179 | -0.157
SYNJ1 C374 (UniProt O43426) | -0.193 | 0.0687 | -0.0753 | -0.00214
STT3A C193 (UniProt P46977) | 0.655 | 0.613 | 0.395 | 0.456
STK11IP C622 (UniProt Q8N1F8) | -0.0383 | 0.065 | -0.142 | 0.0921
SPINT2 C179 | 0.0169 | 0.474 | 0.0712 | 0.391

Following part

Target	log2 mean competition ratio ([1]; 50 µM)	log2 mean competition ratio ([1]; 200 µM)	log2 mean competition ratio ([2]; 50 µM)	log2 mean competition ratio ([2]; 200 µM)
SURF6 C19 (UniProt O75683)	0.492	-0.158	0.326	-0.19
STRAP C305 (UniProt Q9Y3F4)	-0.0818	-0.172	-0.584	-0.153
SYNE2 C2212 (UniProt Q8WXH0)	-0.0435	-0.0517	-0.103	-0.00733
SVBP C58 (UniProt Q8N300)	0.0387	0.286	0.211	0.102
SPECC1 C355 (UniProt Q5M775)	0.0411	-0.0235	0.411	0.00402
SRRD C137 (UniProt Q9UH36)	0.146	-0.458	0.141	-0.158
STRIP1 C100 (UniProt Q5VSL9)	-0.187	0.0766	0.308	0.269
STX4 C141 (UniProt Q12846)	0.00889	-0.0417	-0.331	-0.174
STX17 C290 (UniProt P56962)	-0.181	0.111	-0.349	0.0295
SYNE2 C1931 (UniProt Q8WXH0)	0.0151	0.0649	-0.0594	-0.0945
SPG11 C1424 (UniProt Q96JI7)	-0.274	0.413	-0.159	0.197
STRN4 C337 (UniProt Q9NRL3)	0.136	0.0428	-0.023	-0.0399
SUCLG1 C60 (UniProt P53597)	0.138	-0.151	0.326	-0.149
STK19 C230 (UniProt P49842)	0.0982	-0.0647	0.0282	-0.0778
STIM2 C725 (UniProt Q9P246)	0.402	-0.0758	0.0664	0.0963
SRBD1 C120 (UniProt Q8N5C6)	0.584	-0.247	0.477	-0.163
SPATA13 C419	0.0923	0.126	-0.0225	-0.086
SPATA5L1 C732 (UniProt Q9BVQ7)	0.136	0.234	0.56	0.0416
SPATA2 C41	0.0278	0.0891	0.195	0.195
STX18 C107 (UniProt Q9P2W9)	0.387	0.0529	0.306	0.00588
SYNJ2 C19 (UniProt O15056)	-0.298	-0.188	-0.183	-0.141
SRCAP C265 (UniProt Q6ZRS2)	0.0115	0.0698	-0.0497	-0.257
SQSTM1 C331 (UniProt Q13501)	-0.0555	0.117	0.3	-0.144
SRC C403 (UniProt P12931)	-0.178	-0.0639	-0.674	-0.0231
